From PMC12040169 (PLOS Biology, 2025)
The other results are listed elsewhere or left out.

These compounds were tested on T1, CTL2-GFP (C. trachomatis L2/434/Bu, GFP-expressing). Settings: bulk GFP, single well; 28.5 h, 10 µM; inhibitor.
T1 construct: L2/434/Bu, GFP-expressing
Set-up: species or system HeLa; Intracellular C. trachomatis growth in HeLa cells, bulk GFP fluorescence relative to DMSO

SMILES	% of control remaining
CCC(C)(C)c1ccc(S(=O)(=O)N2CCCN(Cc3c(-c4ccccc4)noc3C)CC2)cc1 [CBK062888]	103.65%
O=C(O)CCSc1ccnc2ccccc12 [CBK122524C]	111.649%
O=C(CC1CCS(=O)(=O)C1)NC1(c2ccc(Cl)cc2)CC1 (stereo not shown) [CBK282773]	94.2766%
CN1CCC(N2CCN(C(=O)c3ccc(-c4cccc(C(F)(F)F)c4)o3)CC2)CC1 [CBK149085]	106.974%
CC1=C(C)CC(C(=O)Nc2ccc(C(=O)NCc3cccnc3)cc2)C(C(=O)O)C1 (stereo not shown) [CBK286567]	133.891%
CCOC(=O)c1cnc(SCc2nc(N)nc(Nc3ccc(C)cc3)n2)nc1N [CBK266292]	65.6688%
NC(=O)C1CCN(C(=S)NC2CC3C=CC2C3)CC1 (stereo not shown) [CBK085970]	129.621%
COc1ccccc1-c1cc(Nc2ccc(N3CCOCC3)cc2)ncn1 [CBK090933]	175.83%
Cc1cc(=O)n(CC(=O)Nc2ccc3c(c2)OCO3)cn1 [CBK287835]	109.518%
CC(Cn1cncn1)C(=O)NC(C)C1CC2CCC1C2 (stereo not shown) [CBK282089]	112.469%
COc1cc(NC(=O)C(C)Oc2cccc(Cl)c2)c(C(=O)O)cc1OC (stereo not shown) [CBK268470]	121.901%
COc1cc(CNC(=O)c2cccnc2Sc2ccc(Cl)cc2)ccn1 [CBK297755]	112.079%
CCCCOc1nccnc1-c1cnc(OC)nc1OC [CBK106756]	105.961%
CCNc1nccnc1-c1ccccc1Cl [CBK037313]	116.667%
CC(=O)NCCCSCc1cn2cccc(C)c2n1 [CBK304809]	161.472%
COc1ccc(C(CNC(=O)Cn2c(-c3cccc(C)c3)n[nH]c2=S)N2CCOCC2)cc1OC (stereo not shown) [CBK297900]	176.765%
Cc1c(C(=O)N2CCC(n3cncn3)CC2)sc2cccc(F)c12 [CBK305520]	156.837%
COc1ccccc1C(=O)N1CCN(c2nc3c(s2)c(C)nn3C)CC1 [CBK306836]	151.158%
COc1ccc2oc(-c3ccccc3)c(C(=O)Nc3nccs3)c2c1 [CBK287767]	104.423%
CCOC(=O)c1cccc(-c2ccc(OC)c(OC)c2)n1 [CBK149247]	115.206%
CCc1ccccc1Nc1nnc(SC(C)C(=O)N2CCCC2)s1 (stereo not shown) [CBK295197]	158.399%
O=C(CN1CCN(S(=O)(=O)c2ccc(F)cc2)CC1)Nc1cccc(C(F)(F)F)c1 [CBK071925]	109.153%
COc1ccc(/C=C(\C)C(=O)Nc2c(OC)cc(F)cc2OC2CCNCC2)cc1OC [CBK050353T]	104.892%
Cc1nnc(Sc2nc3ccccc3nc2N2CCCC2)s1 [CBK093751]	100%
COC(=O)CN1C(=O)S/C(=C/c2ccc(OCc3cccc(C(=O)O)c3)c(Cl)c2)C1=O [CBK265262]	117.696%
NCCCc1c(-c2ccc(Cl)cc2Cl)[nH][nH]c1=O [CBK288367]	129.843%
Cc1cc(C)nc(N2CCC(C(=O)NCc3ccc(Cl)cc3)CC2)n1 [CBK136319]	118.763%

Three compounds out of the list, sorted by molar mass, falling.
SMILES	% of control remaining
COc1ccc(/C=C(\C)C(=O)Nc2c(OC)cc(F)cc2OC2CCNCC2)cc1OC [CBK050353T]	104.892%
CCCCOc1nccnc1-c1cnc(OC)nc1OC [CBK106756]	105.961%
CCOC(=O)c1cccc(-c2ccc(OC)c(OC)c2)n1 [CBK149247]	115.206%

(next part)

SMILES	% of control remaining
CCCc1c(O)nc(SCC(=O)NCc2ccco2)[nH]c1=O [CBK073278]	113.476%
COc1cc(-c2cncc(NC(C)CCCC(C)(C)O)n2)cc(OC)c1OC (stereo not shown) [CBK065481]	161.332%
CCc1c(C(=O)NCCn2ccnc2C)[nH]c2ccc(F)cc12 [CBK283314]	110.797%
CC1=NN(c2ccccc2)C(=O)C1C(=O)c1ccc(Br)cc1 (stereo not shown) [CBK067771]	111.928%
Cc1ccc(CS(=O)(=O)N(C)C2CCN(C)C(C)C2)c(F)c1 (stereo not shown) [CBK305484]	147.944%
CCCc1nn(CC(=O)NC2CCC2)c(=O)c2cc3ccsc3n12 [CBK284194]	88.4279%
CC(=O)Nc1ccc(N2C(=O)CC(N3CCN(Cc4ccc5c(c4)OCO5)CC3)C2=O)cc1 (stereo not shown) [CBK265217]	165.151%
CS(=O)(=O)c1nc2cccnc2s1 [CBK017260]	84.9572%
COc1ccc(N2C(=O)c3ccccc3NC2c2cccc(OCC(=O)Nc3ccccc3)c2)cc1 (stereo not shown) [CBK265406]	85.2038%
CCn1c(=O)n(CC(=O)NC2CCCCC2)c2cccnc21 [CBK283810]	147.804%
Cc1nc(-c2ccncc2)c2c(C)nn(-c3ccc(F)cc3)c2n1 [CBK288545]	104.734%
Cc1cc2nccc(C3CCCN(C(=O)OC(C)(C)C)C3)n2n1 (stereo not shown) [CBK284037]	86.97%
Cn1c(=O)n(-c2cccc(Cl)c2)c(=O)n1C [CBK116498]	104.419%
COC(=O)[C@H]1CN(C(=O)c2scnc2C)C[C@@H]1c1ccc(F)cc1 [CBK283520]	71.1553%
CCCCN1CCCC1c1c[nH]c2ccccc12 (stereo not shown) [CBK023773G]	122.819%
CCCCc1ccc(NC(=O)CSc2nnc(N)s2)c(C)c1 [CBK057659]	117.103%
Cc1nc2cc(Cl)ccc2n1CCO [CBK110738]	163.661%
c1cc(C2CCCCN2Cc2ccc3[nH]ccc3c2)nc(Nc2nccs2)n1 (stereo not shown) [CBK286109]	81.7878%
CCOc1ccc(S(=O)(=O)N(C)CC(=O)N2CCN(C)CC2)cc1Cl [CBK269865]	147.236%
O=C(CCCOc1ccccc1)Nc1ccc([N+](=O)[O-])cc1 [CBK263690]	97.407%
CN1CCOc2ccccc2C(=O)NC/C=C/CC2(CCCNC2)C1=O (stereo not shown) [CBK292027]	109.959%
Cc1nnc(C(C)Sc2nnc(-c3ccc(F)cc3)n2CC2CCCO2)o1 (stereo not shown) [CBK298298]	101.923%
Cc1ccc(Nc2cc(-c3cccc4cccnc34)ncn2)cc1NS(C)(=O)=O [CBK091152]	153.119%
COc1cc(F)cc(OC2CCNCC2)c1NC(=O)Cc1cn(C)c2ccccc12 [CBK050245T]	115.84%
C=CCNC(=O)N1CC[C@H]2CC(=O)N(Cc3cccnc3)CC[C@H]2C1 [CBK288791]	116.08%
CCP(CC)c1ccc(C(=O)O)cc1 [CBK019342B]	133.437%
COc1ccc(Oc2cc3n(c(=O)n2)CCc2cc(OC)c(OC)cc2-3)cc1 [CBK291177]	144.232%

Taken from above:
Entry of `CC1=C(C)CC(C(=O)Nc2ccc(C(=O)NCc3cccnc3)cc2)C(C(=O)O)C1` (stereo not shown) [CBK286567] under % of control remaining: 133.891%
Entry of `Cc1c(C(=O)N2CCC(n3cncn3)CC2)sc2cccc(F)c12` [CBK305520] under % of control remaining: 156.837%

Additional records:

SMILES	% of control remaining
CC1(C)CC(=O)C2=C(C1)CC1(C)CC(C)(C)CC2(Nc2ccccn2)C1 (stereo not shown) [CBK022425]	95.5464%
C[C@H](NC(=O)OC(C)(C)C)C(=O)NC[C@H]1CC[C@H](C(=O)O)CC1 [CBK286741]	145.257%
COC(=O)Nc1ncc(CN2CCc3ccccc3C2)s1 [CBK268376]	157.815%
COc1ccc(-c2ccc(=O)n(CC(=O)NCc3ccc(C(=O)O)cc3)n2)c(F)c1 [CBK286776]	115.494%
COCCNc1nc(-c2ccc(F)cc2)cnc1N [CBK063591]	132.843%
Nc1cccnc1OCCN1CCN(CC(=O)N2CCCCc3ccccc32)CC1 [CBK007764]	122.918%
CNC(=O)N1CCN(CCOC(c2ccc(F)cc2)c2ccc(F)cc2)CC1 [CBK024948C]	136.312%
CN1CC2(CCCN(Cc3noc(-c4ccccc4)n3)C2)OC1=O (stereo not shown) [CBK306952]	128.256%
O=C(O)Cc1sc(-c2ccc(Cl)cc2)nc1O [CBK067730]	135.361%
COC1C(O)C(CO)OC1n1cnc2c(N)nc(N)nc21 (stereo not shown) [CBK201241]	128.924%
Cc1ccc(C)c(C2CCCN2C(=O)c2ccc(=O)n(CC(=O)Nc3ccc(F)cc3)c2)c1 (stereo not shown) [CBK286495]	125.03%
CCCCOc1ccc(NC(=O)NCCc2cccs2)cc1 [CBK045202]	94.0866%
Cc1c(C(=O)NCCN2CCC(C)CC2)oc2c1C(O)CC(C)(C)C2 (stereo not shown) [CBK282100]	147.031%
CCCn1c(O)nnc1-c1cccnc1 [CBK074889]	112.902%
COc1ccc(NS(=O)(=O)c2ccc3c(c2)oc(=O)c2cc(S(=O)(=O)Nc4ccc(OC)cc4)ccc23)cc1 [CBK268439]	84.7783%
N#CC1=C(N)n2c(s/c(=C\c3ccncc3)c2=O)=C(C#N)C1c1ccncc1 (stereo not shown) [CBK262563]	100%
O=C(Nc1ccccn1)Nc1ccccn1 [CBK015518]	110.226%
O=C1OC(c2ccc(N3C(=O)c4cccc5cccc(c45)C3=O)cc2)(c2ccc(N3C(=O)c4cccc5cccc(c45)C3=O)cc2)c2ccccc21 [CBK261845]	90.1139%
Cc1ccc(C(=O)NCCNc2cnccn2)cc1S(C)(=O)=O [CBK246280]	106.048%
COc1cccc(CC(=O)N(CCC#N)Cc2ccco2)c1 [CBK304859]	98.6179%
Cc1cc(CC(=O)N/N=C/c2ccccc2)[nH]n1 [CBK007500]	122.735%
CC(C)c1ccc(N2C(=O)N[C@@H]3CCN(C(=O)c4cccs4)[C@@H]3C2=O)cc1 [CBK289286]	128.558%
Cn1cnnc1SCC(=O)Nc1c(F)cccc1F [CBK295150]	143.004%
O=C1NCCN(C(=O)COc2ccc(F)cc2F)C1Cc1ccccc1-c1cccnc1 (stereo not shown) [CBK285832]	113.33%
COc1ccc(C(=O)N2C[C@@H]3C[C@H](C2)c2ccc(NC(=O)C4CC4)c(=O)n2C3)cc1 [CBK289072]	144.206%
